According to US4806537A (City of Hope, priority 1988, dated 1989):

test system: K^+ transport; test: K^+ transport: ^86 Rb uptake by P3 membrane fractions of whole mouse brain; assay type: biochemical, Swiss mice; settings: rank among the five substances

SMILES	K^+ Transport Rank Order
Nc1c2ccccc2nc2ccccc12 [9-aminoacridine]	2
CCN(CC)CCCC(C)Nc1ccnc2cc(Cl)ccc12 (stereo not drawn) [Chloroquine, chloroquine]	4
CCN(CC)CCCC(C)Nc1c2ccc(Cl)cc2nc2ccc(OC)cc12 (stereo not drawn) [Quinacrine, quinacrine]	3
